Reference: US20180215829A1
No constants are given. Whether binding was seen depends on the method and setting.

By UniProt entry, the sequences of proteins in these tests, tags left out. Where a name states a change or a piece, a line headed by the entry shows the natural chain unless it says otherwise.
UniProt Q8NAC3: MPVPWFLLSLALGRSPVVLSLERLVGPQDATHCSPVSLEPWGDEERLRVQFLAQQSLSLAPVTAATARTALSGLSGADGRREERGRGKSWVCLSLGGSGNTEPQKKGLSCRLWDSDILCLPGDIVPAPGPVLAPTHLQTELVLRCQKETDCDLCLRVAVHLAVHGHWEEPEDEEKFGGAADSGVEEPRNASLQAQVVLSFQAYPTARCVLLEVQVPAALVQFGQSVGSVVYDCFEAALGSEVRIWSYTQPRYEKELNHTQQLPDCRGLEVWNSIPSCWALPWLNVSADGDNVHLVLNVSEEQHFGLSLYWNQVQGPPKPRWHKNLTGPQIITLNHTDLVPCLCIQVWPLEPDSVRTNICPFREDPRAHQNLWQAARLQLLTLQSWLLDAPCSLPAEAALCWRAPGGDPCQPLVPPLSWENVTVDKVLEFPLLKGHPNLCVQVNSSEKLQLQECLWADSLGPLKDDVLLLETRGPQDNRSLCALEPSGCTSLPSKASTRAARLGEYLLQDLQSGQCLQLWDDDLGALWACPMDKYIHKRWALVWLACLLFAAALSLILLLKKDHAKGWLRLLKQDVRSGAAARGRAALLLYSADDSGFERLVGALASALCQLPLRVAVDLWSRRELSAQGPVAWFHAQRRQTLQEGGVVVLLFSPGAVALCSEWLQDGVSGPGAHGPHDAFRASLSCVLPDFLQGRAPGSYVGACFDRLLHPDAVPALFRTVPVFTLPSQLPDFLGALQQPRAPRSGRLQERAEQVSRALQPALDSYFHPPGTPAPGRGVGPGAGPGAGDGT

target: IL-17RC (UniProt Q8NAC3); experiment: specificity ELISA, antigen coated, anti-His-HRP detection

Row | binding | Binder
1 | no binding | VH clone 1.2 (VHH) VHH: EVQLVESGGGLVQPGRSLRLSCAASGFTFDDYAMHWVRQAPGKGLEWVSGISWNSGRMDYADSVKGRFTISRDNAKNSLYLQMNSLRAEDTALYYCAKEKGLGYCRGGSCSYFDYRGQGTLVTVSS
2 | no binding | VH clone 1.1 (VHH) VHH: QVQLVESGGGLVQPGRSLRLSCAASGFTFDDYAMHWVRQAPGKGLEWVSGISWNSGRMDYADSVKGRFTISRDNAKKSLYLQMNSLRAEDTAMYYCAKEKGLGFCRGGSCSYFDYRGQGTLVTVSS
3 | no binding | VH 62A4 (VHH) VHH: QVQLVESGGGLVQPGRSLTLSCTASGFTFHDYAMHWVRQPPGGGLEWVAGVSWNGNNVGYADSVKGRFTISRDNAKKSLYLQMNSLRSEDTALYYCAKGGMGSGSHPDSFSTWGQGTMVTVSS
4 | no binding | VH clone 2.1 (VHH) VHH: QVQLVQSGAEVKKPGASVKVSCKASGYPFTSYDINWVRQATGQSLEWMGWMNPNSGDTVYAQKFQGRVTMTRNTSISTAYMELSSLRSEDTAVYFCARGRRDDWKNNYWGQGTLVTVSS
